Values quoted from earlier work as cited in US8277842B1, “Enteric-coated HT-2157 compositions and methods of their use” (Dart NeuroScience (Cayman) Ltd., priority 2012, dated 2012).
For at least one compound, name, drawing or mass did not settle the structure.

Experiments:
[1] = injection or oral administration; cited from earlier work
[2] = biological target: T1, Galanin 3 receptor (GalR3) (Homo sapiens, UniProt O60755); details: cited from earlier work
T1 sequence (O60755 1-368): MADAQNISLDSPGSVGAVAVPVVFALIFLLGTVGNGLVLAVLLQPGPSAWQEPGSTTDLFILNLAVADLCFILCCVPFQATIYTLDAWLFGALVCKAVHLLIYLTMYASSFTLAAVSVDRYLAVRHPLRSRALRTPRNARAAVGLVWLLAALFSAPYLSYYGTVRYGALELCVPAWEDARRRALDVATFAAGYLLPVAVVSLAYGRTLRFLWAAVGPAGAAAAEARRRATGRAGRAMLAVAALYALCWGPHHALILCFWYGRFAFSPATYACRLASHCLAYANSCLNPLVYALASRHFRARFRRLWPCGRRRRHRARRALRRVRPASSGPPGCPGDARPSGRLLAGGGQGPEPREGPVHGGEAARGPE

[3] = Oegren et al. 2006; cited from earlier work
[4] = intraperitoneal administration; cited from earlier work

For O=C1C(=Nc2cccc(C(F)(F)F)c2)c2ccccc2N1c1ccccc1 [HT-2157], the “24-hour memory (long-term memory), contextual fear conditioning” value [1] is given as “enhance 24-hour memory”, the “selectivity for GalR3 over a broad panel of targets, including GAL1 and GAL2” value ([2]; Konkel et al. 2006) is given as “high selectivity” and the “antagonism of the Galanin 3 receptor” value ([2]; Swanson et al. 2005) is given as “highly potent and selective antagonist”. The “activity in several animal models of mood disorders” value [3] was “antidepressant-like activity” and the “24 hour memory (long-term memory), object recognition” value [4] was “enhance 24 hour memory”.
